# The other results are listed elsewhere or left out. Cut-off read from the data, not from the text of the source: active = 2 or more and inactive = the rest. Most values lie within the scatter of the assay; repeated measurements hardly agree.
# Test system: Lgr5 (MarsCy1-Lgr5-EGFP, U2OS)
# Test: cell-surface Lgr5 expression (SCi1 fluorescence, background-subtracted) relative to WT DMSO (fold of DMSO control); higher = more Lgr5 at the plasma membrane
# Settings: U2OS MarsCy1-Lgr5-EGFP stable; treatment time: overnight; library: ActiProbe-5K (TimTec); 25 µM
row,SMILES,cell-surface Lgr5 expression
1,CCN1CCN(c2cc(C)nc3nncn23)CC1,inactive: 1.15
2,O=[N+]([O-])c1ccc(NCCNc2ccc([N+](=O)[O-])c3cccnc23)cc1,active: 4.02
3,NC1(Cc2ccc(Cl)cc2)CC1,inactive: 1.16
4,CN1CCc2[nH]c(=S)c(C#N)c(-c3ccsc3)c2C1,inactive: 0.977
5,Nc1c(Cl)c(Cl)nc(C(=O)O)c1Cl,inactive: 1.24
6,O=[N+]([O-])c1ccc(Cl)cc1N/N=C1\CN2CCC1CC2,inactive: 1.08
7,N#C/C=C1\CN2CCC1CC2,inactive: 1.16
8,CN(C)C(=S)SSC(=S)N(C)C,inactive: 0.834
9,C#CC1(O)CCC2C3CC=C4CC(OC(C)=O)CCC4(C)C3CCC21C (centres undefined),inactive: 1.88
10,O=S1(=O)c2ccccc2-c2ccccc21,inactive: 1.12
11,Cc1nn(C)cc1CN1CCNCC1,inactive: 1.25
12,Cc1cc(C=O)c(C)n1C1CC1,inactive: 1.29
13,c1(c(/C=C(/C#N)C#N)cc(s1)CC)SCC,inactive: 1.36
14,N=C(Nc1ccccc1)Nc1ccccc1,inactive: 1.04
15,COC(=O)[C@@H]1OC(Br)[C@@H](OC(C)=O)[C@H](OC(C)=O)[C@H]1OC(C)=O (some centres undefined),inactive: 1.05
16,Cn1c(Sc2nnc(N)[nH]2)nnc1[N+](=O)[O-],inactive: 1.18
17,Cc1ccc(C2Oc3ccccc3C3CN(C)OC32[N+](=O)[O-])cc1 (centres undefined),inactive: 0.946
18,O=[N+]([O-])c1cn(Cn2cc([N+](=O)[O-])nc2Cl)c(Cl)n1,inactive: 1.03
19,O=C1CCC(=O)N1C1CCCN2CCCCC12 (centres undefined),inactive: 1.29
20,CC(=O)Nc1nonc1N,inactive: 1.03
21,COC(=O)c1n[nH]c([N+](=O)[O-])c1[N+](=O)[O-],inactive: 1.38
22,CC(C)c1ccc(C2NCc3ccccc3-n3cccc32)cc1 (centres undefined),inactive: 0.766
23,CC(C)C/C(=N\O)c1c[nH]c2ccccc12,inactive: 0.855

row,SMILES,cell-surface Lgr5 expression
1,N=C(NN)c1nonc1N,inactive: 1.32
2,O=C(O)CCn1cnnn1,inactive: 1.15
3,Cc1c(C(=O)NN)nnn1-c1nonc1N,inactive: 1.15
4,O=[N+]([O-])c1ccc(N2CCNCC2)c2cccnc12,inactive: 1.07
5,Cc1n[nH]c2c1C1(CCN(C)CC1)C(C#N)=C(N)O2,inactive: 1.21
6,COC(=O)Cn1ncnn1,inactive: 1.09
7,O=[N+]([O-])c1ccc(Cl)c(Cl)c1Cl,inactive: 1.47
8,CC(=O)c1cc(CCl)cs1,inactive: 1.24
9,O=[N+]([O-])c1cc(-c2cc([N+](=O)[O-])[nH]n2)n[nH]1,inactive: 1.53
10,NC(=O)Cn1nc([N+](=O)[O-])nc1Br,inactive: 1.24
11,CCOC(=O)c1c(NC(=O)C2C(C)(C)C2(C)C)sc2c1CCC2,inactive: 1.11
12,c1cncc(C2Nc3cccc4cccc(c34)N2)c1,inactive: 0.954
13,CN1CCN(c2ccc([N+](=O)[O-])c(N3CCN(C)CC3)c2)CC1,inactive: 1.16
14,NCCc1csc2c1CCCC2,inactive: 1.29
15,COC(=O)Cn1cnc([N+](=O)[O-])n1,inactive: 1.08
16,c1(c(sc(c1)C)C)/C=C(/C#N)C#N,inactive: 1.2
17,Nc1nnnn1CC(=O)O,inactive: 1.28
18,O=Cc1cc(CCl)cs1,inactive: 1.21
19,O=[N+]([O-])c1c(Br)sc(Br)c1[N+](=O)[O-],inactive: 1.54
20,Nc1nc2ccccc2c(-c2cccc3ccccc23)c1CN1CC1,inactive: 0.515
21,NC(=O)c1no[n+]([O-])c1C(N)=O,inactive: 1.38
22,CC[n+]1ccc(-c2cc[n+](CC)cc2)cc1.[Br-].[Br-],inactive: 1.16
23,Nc1cc(Br)ccc1O,inactive: 0.692

row,SMILES,cell-surface Lgr5 expression
1,CCCCCCCCC1CCNC1=O (centres undefined),inactive: 1.14
2,c1ccc2c(c1)CCc1c-2[nH]c2ccccc12,inactive: 1.03
3,CCCn1nc(C)c(C=O)c1C,inactive: 1.19
4,c1ccc2c(c1)ccc1cccnc12,inactive: 1.1
5,C(/C#N)(C#N)=C\c1ccc(/C=C(\C#N)C#N)cc1,active: 2.39
6,CCCC[n+]1[cH-]/c(=N\C(=O)OC)on1,inactive: 1.18
7,CC(N)Cn1cnc2c(cnn2C)c1=O (centres undefined),inactive: 1.15
8,CN1CCC(O)(c2ccco2)C(C(O)c2ccco2)C1 (centres undefined),inactive: 1.21
9,O=[N+]([O-])c1ccc(O/N=C2\CN3CCC2CC3)cc1,inactive: 0.978
10,CN1[C@@H]2CC[C@H]1C[C@@H](O)C2,inactive: 0.986
11,CS(=O)(=O)c1nc([N+](=O)[O-])n[nH]1,inactive: 0.995
12,CC(=O)[C@@H]1[C@@H]2NC(=S)N[C@@]1(C)Oc1ccccc12,inactive: 0.978
13,CC(=O)[C@@H]1[C@@H]2NC(=O)N[C@@]1(C)Oc1ccccc12,inactive: 1.1
14,O=[N+]([O-])c1nnc(Br)[nH]1,inactive: 1.44
15,COc1cccc(N2CCNCC2)n1,inactive: 1.12
16,O=C1NCCCC12CCCNC2=O,inactive: 0.842
17,Cc1cc(C=O)c(C)n1C1CCCC1,inactive: 1.22
18,Nc1c([N+](=O)[O-])cc2[nH]c(=O)[nH]c2c1[N+](=O)[O-],inactive: 1.1
19,c1(oc(C)cc1)/C=C(\C#N)C#N,inactive: 0.858
20,CCN1CCc2[nH]c(=S)c(C#N)cc2C1,inactive: 1.18
21,CN1CCc2[nH]c(=S)c(C#N)c(-c3cccs3)c2C1,inactive: 0.904
22,CC(N)Cn1nc(C(F)(F)F)cc1C1CC1 (centres undefined),inactive: 1.1
23,Cc1c(/N=N\c2no[n+]([O-])c2C)no[n+]1[O-],inactive: 1.45

row,SMILES,cell-surface Lgr5 expression
1,CN1CCC(O)(c2ccco2)C(C(=O)Cc2ccco2)C1 (centres undefined),inactive: 1.13
2,C1(N(C(=O)C(/C(N1C)=O)=C\NCc1occc1)C)=S,inactive: 1.02
3,COc1cc2c(cc1OC)-c1c(OC)c(OC)c(Br)c3c1C(C2)N(C)CC3 (centres undefined),inactive: 0.755
4,NC(c1c[nH]c2ccccc12)C(F)(F)F (centres undefined),inactive: 1.06
5,OC1(CCl)CN2CCC1CC2 (centres undefined),inactive: 1.33
6,O=C(O)c1[nH]nc(-c2n[nH]c(C(=O)O)c2[N+](=O)[O-])c1[N+](=O)[O-],inactive: 1.41
7,CCOc1nc(NC(C)C)nc(N2CC3CC(C2)c2cccc(=O)n2C3)n1 (centres undefined),inactive: 1.12
8,Nc1nonc1/N=[N+](/[O-])c1nonc1N,inactive: 1.08
9,N=c1c(N=O)c(O)[nH]c(=O)n1Cc1ccco1,inactive: 1.17
10,O=[N+]([O-])c1cc(F)c(N2CCCC2)cc1N1CCNCC1,inactive: 1.3
11,O=C1CCN[C@@H]2CCCC[C@@H]12,inactive: 1.03
12,CN1CCN(c2ccc([N+](=O)[O-])c(N3CCCC3)c2)CC1,inactive: 1.04
13,NC(=O)c1n[nH]c([N+](=O)[O-])c1[N+](=O)[O-],inactive: 1.71
14,c1([N+]([O-])=O)sc(/C=C(\C#N)C#N)cc1,inactive: 0.855
15,CCNc1nc(Cl)nc(NCC)n1,inactive: 1.2
16,CC(=O)OC1C2CCC1C(N1CCCCC1)CC2.Cl (centres undefined),inactive: 1.2
17,COCc1c(C(=O)NN)nnn1-c1nonc1N,inactive: 1.2
18,Nc1ccc([N+](=O)[O-])c2nonc12,inactive: 1.05
19,O=[N+]([O-])/C=C/c1ccc2c(c1)OCO2,inactive: 0.483
20,Fc1nc(N2CCNCC2)c(F)c(Sc2ccc(Cl)cc2)c1F,inactive: 1.16
21,CN(C)c1ccc([N+](=O)[O-])c(C(F)(F)F)c1,inactive: 1.18
22,c1(/C=C(/C#N)C#N)c(cc(c(c1)Br)OC)OC,inactive: 0.689
23,c1cc(C2N3CCCN23)ccn1 (centres undefined),inactive: 0.999

row,SMILES,cell-surface Lgr5 expression
1,CCNC1(c2cccs2)CCCCC1,inactive: 1.46
2,c1(sc(CC)cc1)/C=C(/C#N)C#N,inactive: 1.25
3,Cc1noc(C2CCNCC2)n1,inactive: 1.1
4,N#CC[N+]12CCN(CC1)CC2.[Cl-],inactive: 1.06
5,CCc1[nH]nc2c1C1(CN3CCC1CC3)C(C#N)=C(N)O2 (centres undefined),inactive: 1.05
6,Nc1c(Br)cc([N+](=O)[O-])cc1Br,inactive: 1.16
7,O=[N+]([O-])c1cc2nonc2c2nn[nH]c12,inactive: 1.04
8,Cc1ccc[n+]([C-]([N+](=O)[O-])[N+](=O)[O-])c1,inactive: 1.29
9,CN1CCN(c2ccc(F)cc2N)CC1,inactive: 1.13
10,Cc1nc2c(o1)NC(N)=C(C#N)C21CCN(C)CC1,inactive: 1.22
11,NCCc1c[nH]c2ccc(F)cc12,inactive: 1.43
12,ClCc1ccc2ccccc2n1,inactive: 1.21
13,CNc1ccc([N+](=O)[O-])cc1[N+](=O)[O-],inactive: 1.43
14,Nc1c(Cl)cc([N+](=O)[O-])cc1Cl,inactive: 1.32
15,Cc1ccc(NC2=NCC(C)S2)cc1C (centres undefined),inactive: 1.32
16,COC(=O)c1ccc(CCl)s1,inactive: 1.2
17,CN1CCC2(CC1)OC1CCCCC1c1sccc12 (centres undefined),inactive: 1.11
18,CN1CCN(c2ccc([N+](=O)[O-])c(NC3CC3)c2)CC1,inactive: 0.863
19,CN(C)c1ccc2c(C(F)(F)F)cc(=O)oc2c1,inactive: 1.05
20,c1([N+]([O-])=O)c(sc(c1)/C=C(\C#N)C#N)C,inactive: 1.02
21,Nc1nc2nonc2nc1N,inactive: 0.787
22,CC(C)OCCCNC1CCN(C)CC1,inactive: 1.09

# Filtered by structure, those above with a COOH group.
row,SMILES,cell-surface Lgr5 expression
5,Nc1c(Cl)c(Cl)nc(C(=O)O)c1Cl,inactive: 1.24
2,O=C(O)CCn1cnnn1,inactive: 1.15
17,Nc1nnnn1CC(=O)O,inactive: 1.28
6,O=C(O)c1[nH]nc(-c2n[nH]c(C(=O)O)c2[N+](=O)[O-])c1[N+](=O)[O-],inactive: 1.41

# — the supplement of paper PMC4683952
